Test results as given in article doi:10.1101/519199.

Key:
[1] = molecular target: OsANN4 (pGBKT7-OsANN4) (rice (Oryza sativa subsp. japonica cv. Nipponbare)); assay: two-hybrid
[2] = molecular target: OsANN4-GST (rice (Oryza sativa subsp. japonica cv. Nipponbare)); assay: pull-down
[3] = molecular target: OsANN4(S13A)-Cluc (rice (Oryza sativa subsp. japonica cv. Nipponbare)); assay: split reporter
[4] = molecular target: OsANN4-Cluc (rice (Oryza sativa subsp. japonica cv. Nipponbare)); assay: split reporter

B1: OsCDPK24 (pGADT7-OsCDPK24) (enzyme, UniProt Q53P85 1-513)
chain: MQPDPSGSGGDGNANAKAKLAPPPVTAAGGRPVSVLPHKTANVRDHYRIGKKLGQGQFGTTYLCVDKASGGEFACKSIPKRKLLCREDYEDVWREIQIMHHLSEHPNVVRIRGAYEDALFVHIVMELCAGGELFDRIVAKGHYTERAAAQLIRTIVAVVEGCHSLGVMHRDLKPENFLFASAAEDAPLKATDFGLSMFYKPGDKFSDVVGSPYYVAPEVLQKCYGPESDVWSAGVILYILLCGVPPFWAETEAGIFRQILRGKLDFESEPWPSISDSAKDLVRNMLCRDPTKRLTAHEVLCHPWIVDDAVAPDKPIDSAVLSRLKHFSAMNKLKKMALRVIAESLSEEEIGGLKELFKMIDTDDSGTITFDELKEGLKRVGSELTEHEIQALMEAADIDNSGTIDYGEFIAATLHMNKLEREENLVSAFSFFDKDGSGFITIDELSQACREFGLDDLHLEDMIKDVDQNNDGQIDYSEFTAMMRKGNAGGAGRRTMRNSLQLNLGEILNPSNS
[1]
  binding: binds

B2: OsCDPK24-His (enzyme, UniProt Q53P85 1-513)
chain: B1 chain
[2]
  binding: binds

B3: OsCDPK24-Nluc (enzyme, UniProt Q53P85 1-513)
chain: B1 chain
[3]
  binding: binds
[4]
  binding: binds

No constants are given. Whether binding was seen depends on the method and setting. Binding calls can cover weak binding; strength is not graded here. For some of these results: Sequences can lack the tags named with a protein. For some of these results: In cells and extracts the contact can be indirect.
